According to publication PMC5079590:
Construct, isoform or probe ends are uncertain for at least one entry.

How the values were obtained:
[1] = system: GST-IbbHLH4 (Ipomoea batatas (sweet potato)); experiment: EMSA; settings: protein titration; EMSA: 5X binding buffer (50 mM Tris-HCl pH 8.0, 750 mM KCl, 2.5 mM EDTA, 62.5% glycerol), 1 ug poly(dI-dC), room temperature; 6.6% native gel, 0.5X TBE; recombinant protein; protein details: N-terminal GST (pGEX4T-3)
[2] = system: GST-IbbHLH3 (Ipomoea batatas (sweet potato)); experiment: EMSA; settings: protein titration, 50x unlabeled NWRE used as competitor (outcome only in gel); EMSA: 5X binding buffer (50 mM Tris-HCl pH 8.0, 750 mM KCl, 2.5 mM EDTA, 62.5% glycerol), 1 ug poly(dI-dC), room temperature; 6.6% native gel, 0.5X TBE; recombinant protein; protein details: N-terminal GST (pGEX4T-3)

Question: Does “GCGTTCTTACTTTTCGTAAGGGCACGTGAAGCACCCCAACAAA (double strand) [6FAM-NWRE]” bind [1]?
Answer: binds

Question: Does “GCGTTCTTACTTTTCGTAAGGGCACGTGAAGCACCCCAACAAA (double strand) [6FAM-NWRE]” bind [2]?
Answer: binds
